According to patent publication US8299055B2, “8-substituted isoquinoline derivative and the use thereof” (Asahi Kasei Pharma Corporation, priority 2008, dated 2012):
Some of these results come from one statement about several compounds together. At least one structure is not confirmed: it was looked up by name or label, or the drawing left a doubt.

Key:
[1] = tested on: TNF-α production in mouse blood; assay: TNF-α production suppressing ability (in vitro)-2, LPS added to mouse blood; assay type: cell-based; conditions: at 10 μM or lower; BALB/c mouse blood, LPS 5 μg/mL, 4 hours
[2] = tested on: TNF-α production; assay: TNF-α production suppressing ability (in vivo), LPS administered to mouse; conditions: oral dose of 30 mg/kg 30 minutes before LPS i.p.; mouse plasma 90 minutes after LPS
[3] = tested on: TNF-α production in THP-1 cells; assay: TNF-α production suppressing ability (in vitro)-1, LPS-stimulated THP-1 cells; assay type: cell-based, human; conditions: at 5 μM or lower, LPS 2 μg/mL, 4 hours

SMILES | TNF-α production suppression rate [1] | TNF-α production suppression rate [2] | TNF-α production suppression rate [3]
N#Cc1cccc(-c2cc(N3CCNCC3)c3cnccc3c2)c1 [Example 1-N-6] | ≥ 50% | ≥ 50% | –
c1cncc(-c2cc(N3CCNCC3)c3cnccc3c2)c1 [Example 1-N-47] | – | – | ≥ 50%
c1ccc(-c2cc(N3CCNCC3)c3cnccc3c2)cc1 [Example 1-NP-38] | – | – | ≥ 50%
c1cc2cc(-c3ccsc3)cc(N3CCNCC3)c2cn1 [Example 1-NP-40] | ≥ 50% | – | ≥ 50%
CCS(=O)(=O)N1CCC(Nc2cc(-c3cc(C#N)cc(C(F)(F)F)c3)cc3ccncc23)CC1 [Example 3-NP-64] | ≥ 50% | – | ≥ 50%
CCS(=O)(=O)N1CCC(Nc2cc(-c3ccc(CCC#N)cc3)cc3ccncc23)CC1 [Example 3-NP-65] | ≥ 50% | – | ≥ 50%
COCC(=O)N1CCC(Nc2cc(-c3ccc(CCC#N)cc3)cc3ccncc23)CC1 [Example 3-NP-100] | – | – | ≥ 50%
